Experiment: soluble on expression in E. coli; label from the status in PepcDB or PDB records
For “EVKPEINFVNVGERCNVAGSRKFLRLINEKKYDEALSIARKQVEDGALIIDVNMDDGLLDAKEEMTTFLNLVASEPEIARVPVMIDSSKWEVIEAGLKCLQGKSIVNSISLKEGEEKFLEHARTVRQYGAAVVVMAFDEKGQADTATRKIEVCERAYHLLVDKIGFNPHDIIFDPNVLAVATGIEEHNNYAVDFIEATAWIKKNLPGAHISGGVSNLSFSFRGNNYIREAMHAVFLYHAIQKGMDMGIVNPGTSVLYTDIPADVLERIEDVVLNRRSDAAERLIELADRLKEASAGNTSAGQP”, the “soluble on expression in E. coli” value was “soluble”. In the case of “GDVEKGKKIFIMKCSQCHTVEKGGKHKTGPNLHGLFGRKTGQAPGYSYTAANKNKGIIWGEDTLMEYLENPKKYIPGTKMIFVGIKKKEERADLIAYLKKATNE”, the “soluble on expression in E. coli” value is reported as “soluble”. In the case of “MAEKQPMLSFAKVVSGQAEDASSPSQQVQHTQDSSHSSTQNENSQPEKQAHPPHNRREKENVGGRSERPREEAEAAAAAAQKEQKSETAADQFIITATPVVQKSSAPIPEKKRAVEPTPKQAAPIKEKSKSRESKKEPWKTSTAPAATAPVTETVTVAATQDWPTLAKAELNGHVSPSNSDDNNESSSNSQHKTGGKMTKNSWKKVDISVDYGSKGKGAPRGNGGEKGTRRSANDEAVRRRSGEEDSASGDEQQYWSRSKDNKSPINEMSSDRVVDSGSNGIYYQQGGTHGWKKKVNNKAGSDMPTPPNSTSPHQSESNSPEHLPKDKAPIMNGNAKNAPAANRNGNNTSTAKTGDYWHKNGGERKEDKSQPKAYYQRNDRFQARANPHAPPKLTAAQRKERGPLPRWEDIEAGDDNFDYMTLMEAQYSQYYGAPQQFEHQLDPHQASILIQQAQQHMASFAPFRPPMPMLSPHLMSPPLDRDGGVTSPVSNGEPINTAIPFAPIYNPPTAPRPVTDDTLKEYVRKQIEYYFSEENLQKDFFLRRKMGPEGYLPVALIASFPRVRSLTEDYSLILEALKDSTKVDMSPDGLQIRAPVNPTIWPLMPTVSGADSLPGPSSQAPQQFRQNGPAATAAPVESQPQASSSKPQQPEEWEEFDNEISGGGGSAQTPKRPEKSKKAFLSAIDSEEIGDDVISKLIIMTPSRRTLDRTGDFSTRSQNQGEFNEEVEIGLRRYEEELWTVPQEKDIPTSKVSTISAEQFNEMRGNEDAKKTSDEPPEIPLPSGTQPTPDSVWTKKAKERAAASVTVPKSPMQRRESEEQKMNRFYPISKPTAPLDAKSPRKKKTRHSEKPPVEMPVAWVLGREDALPAAPIGIAASSSQVPANHPSISLLQEDRFVQNVYSTWRQACLKQRKSLGYDCAEMNTLYRFWSFFLRDNFNRNMYEEFRKLALEDAEIGSRYGIEALFRFYSYGLEKKFRPEIYKNFMKDVTTDVQKGELYGLEKLFAFLQRSKIAKQLVVDDYLTKELNKYKSTDDFRNLPQSTKNQNVCLQNSQMALDCIVFLSF”, the “soluble on expression in E. coli” value is reported as “not soluble”. For “MAGAEGFQYRAVYPFRRERPEDLELLPGDLLVVSRVALQALGVADGGERCPHNVGWMPGFNERTRQRGDFPGTYVEFLGPVALARPGPRPRGPRPLPARPLDGSSESGHILPDLAEQFSPPDPAPPILVKLVEAIEQAELDSECYSKPELPATRTDWSLSDLEQWDRTALYDAVKGFLLALPAAVVTPEAAAEAYRALREVAGPVGLVLEPPTLPLHQALTLRFLLQHLGRVARRAPSPDTAVHALASAFGPLLLRIPPSGGEGDGSEPVPDFPVLLLERLVQEHVEEQDAAPPALPPKPSKAKPAPTALANGGSPPSLQDAEWYWGDISREEVNERLRDTPDGTFLVRDASSKIQGEYTLTLRKGGNNKLIKVFHRDGHYGFSEPLTFCSVVELISHYRHESLAQYNAKLDTRLLYPVSKYQQDQVVKEDSVEAVGAQLKVYHQQYQDKSREYDQLYEEYTRTSQELQMKRTAIEAFNETIKIFEEQGQTQEKCSKEYLERFRREGNEKEMQRILLNSERLKSRIAEIHESRTKLEQDLRAQASDNREIDKRMNSLKPDLMQLRKIRDQYLVWLTQKGARQRKINEWLGIKNETEDQYSLMEDEDALPHHEERTWYVGKINRTQAEEMLSGKRDGTFLIRESSQRGCYACSVVVDGDTKHCVIYRTATGFGFAEPYNLYGSLKELVLHYQHASLVQHNDALTVTLAHPVRAPGPGPPSAAR”, the “soluble on expression in E. coli” value was “soluble”. In the case of “MAHHHHHHMTSKSFLLSFLKYKHVNTYIFEKSFSKILKNTKKHIDCHLKSCFVTMNEKKEHVLEGEKNKRVVNASKDKKKEEEGEVDPRLYFENRSKFIQDQKDKGINPYPHKFERTISIPEFIEKYKDLGNGEHLEDTILNITGRIMRVSASGQKLRFFDLVGDGEKIQVLANYSFHNHEKGNFAECYDKIRRGDIVGIVGFPGKSKKGELSIFPKETILLSACLHMLPMKYGLKDTEIRYRQRYLDLLINESSRHTFVTRTKIINFLRNFLNERGFFEVETPMMNLIAGGANARPFITHHNDLDLDLYLRIATELPLKMLIVGGIDKVYEIGKVFRNEGIDNTHNPEFTSCEFYWAYADYNDLIKWSEDFFSQLVYHLFGTYKISYNKDGPENQPIEIDFTPPYPKVSIVEEIEKVTNTILEQPFDSNETIEKMINIIKEHKIELPNPPTAAKLLDQLASHFIENKYNDKPFFIVEHPQIMSPLAKYHRTKPGLTERLEMFICGKEVLNAYTELNDPFKQKECFKLQQKDREKGDTEAAQLDSAFCTSLEYGLPPTGGLGLGIDRITMFLTNKNSIKDVILFPTMRPAN”, the “soluble on expression in E. coli” value is reported as “not soluble”. In the case of “MANLNQKKYPAKDDFPNFEGHKSLLSKYLTADMYAKLRDVATPSGYTLDRAIQNGVDNPDFHLGLLAGDEETYTVFADLFDPVIEEYHNGFKKTDNHKTDLDASKILDDVLDPAYVISSRVRTGRNIRGMALSPHVCRSERRAIEKMVSEALNSLAADLKGKYYSLMKMDEKTQQQLIDDHFLFDRPVSRHFTSGGMARDFPDGRGIWHNDKKNFLVWINEEDHTRIISMQMGGNMKEVFERFTRGLTEVEKHIKDKTGKEFMKNDHLGFVLTCPSNLGTGVRCSVHAKLPHMAKDKRFEEICTKMRLQKRGTSGEFTESVGGVYDISNLDRLGSSEVEQVNCVIKGVKVLIEMEKKLEKGESIDDLVPK”, the “soluble on expression in E. coli” value is reported as “soluble”. With “MASPRTRRVLKELRPCDDNNFCFECEANNPQWVSVSYGIWICLECSGIHRSLGVHLSFVRSVTMDKWKDIELAKMKAGGNRKFAEFLQSQPDYKEKWTIQEKYNSRAAALFRDKVACEAEGREWSQSTSPAANYVPPTLGGMSSQSKPTNKSSGNSSLGSYYGGNSSYSQSTGDGAYSTQDSNSKYQGFGNTGYVPNQSNSGDDLLAGAMSGLSMGWSMLSKGASQAAAMAKDVGIQAQQKASQLSENVSQNNSLFGGVANKASEVGTKSWDGLSSFVKSPSLNAFSGILAKTGYEDFGGGGGGMSGSSSQNEFNDWLKQSNLPRGTTEGGDHLSNEELKPTEPVETKKKKERSVKPVQSKEKVTAENVEDDDSSSTITQFESSFNKPKTTAPRLAPVAAAPPKKKEEKAKGWDDDAWDLLNQ” the “soluble on expression in E. coli” value was “not soluble”. In the case of “MAVSTGVKVPRNFRLLEELEEGQKGVGDGTVSWGLEDDEDMTLTRWTGMIIGPPRTNYENRIYSLKVECGPKYPEAPPSVRFVTKINMNGINNSSGMVDARSIPVLAKWQNSYSIKVVLQELRRLMMSKENMKLPQPPEGQTYNN”, the “soluble on expression in E. coli” value is reported as “soluble”. With “MCMPDMSQLKELPFSTLQFYATAPYPSYLPGRQARSQVAAPGHLINTGTYSQLVEQGFRRSGLFTYRPHCDNCHACVPVRVDAARFEPNRTQRRAWRSHQALRAFVAELAWSPEHYDLYTRYQQGRHPGGGMDEDSRTQYAQFLLTTRVNTRLVKFRTPQGQLAMISIIDVLDDGLSSVYTFYDPDMAGSLGTYSILWQIEQCRTLDLPWLYLGYWIADSRKMAYKANFRPLQMHVDGAWRETPPLEHHHHHH” the “soluble on expression in E. coli” value was “not soluble”. For “MDENINFKQSELPVTCGEVKGTLYKERFKQGTSKKCIQSEDKKWFTPREFEIEGDRGASKNWKLSIRCGGYTLKVLMENKFLPEPPSTRKKVTIK”, the “soluble on expression in E. coli” value was “soluble”. With “MDQDFDLDEGAGQFNLKTTLMMFTSNDSQNDDGIWSPGSPYQALEDPSFLDKHFVSDPDRYTADELYSALEKMDGKSDLIGMDDMDNDNCYSLSPPDSGSLPISPASTSPSSYHSSGGEDLMDCYPSIDILQQASEELLYSKDDDYEICSSGPLLAYTNANSVATSAVHQNQQQQQRRLNQAGFPHQNSNGLVRFKSSQPRVLNPASISLNAPSSSFNPQSTSSTPATSSSSSSSTNGGFVKSSTGERRKYPPLRLDEEEIKLCKKEGICLPDFFPLTKAEERDLKRIRRKIRNKRSAQTSRKRKQDYIEQLEDRVSESTKENQALKQQIERLSSENQSVISQLKKLQAQLGQNAKRTTQAGRCLAVFMLSACLLVSPQLSPLGNQDNQKVLECIEEACQPSATSMNSANSAQRAIAGVTAPSVVIPSGGPVMVSTNANRQMNRNAVLNHHNNSKYPASGNQNHHPIALEDLNHPPPTLQPKQSYQQQHQPSMYRRSDETIAMAMAKIGARKGSSTSSSSASSVASSTSTSSATSPIYRTSRTLGAFEDQCDASSDDSNCANMPSLVPMKMSAQPPKRKIVTMNGQPRVTYRAVPASSVNVEQAQYYKVPQQKVQYVTMDRPIKYEVLNDYIKMEEESTIRLPNSWSTAGPRLHPQVNASSRTVRPLTVATPVHYNGPSAKKIKTQMF” the “soluble on expression in E. coli” value was “not soluble”. With “MGHHHHHHSHGVKIVPQGYQWTVERFGRYTKTLQPGLSLVVPFMDRIGRKINMMEQVLDIPSQEVISKDNANVTIDAVCFIQVIDAPRAAYEVSNLELAIINLTMTNIRTVLGSMELDEMLSQRDSINSRLLRIVDEATNPWGIKVTRIEIRDVRPPAELISSMNAQMKAERTKRAYILEAEGIR” the “soluble on expression in E. coli” value was “not soluble”. For “MGKGFQNFMSKKDFHPSAFRNLKMVWEARQKKSLEDKRQEELRVAYEKEQEILNNKALLGDEKAKMGLSFMYDAPAGMTKREEPKEEPKFEWQRKYQAPREDWAKGNEEIQDQPFGIQVRNVRCCKCHKWGHINTDRECPLFGKSGNFEDEGYANNPSDLIKDLRRRRQEGKAGPSTSKSSAAAATGEDDDEDEWMDHQQLASDMREEHGIKLKSSVLAGMQTDQQLTRMKKEMTEEEMMLEFFNSMTEKEKKKLHKKLMSGADLEDVMKKKSKKEKKKEKKEKRKNKDKKKDKKKNKKSKSRETDDDSDGSDSEDDWKEKSSKRIKREVESSPEYRSKYIKQEVLSEDENSHGRKDSSRKRAHNDSESSNEVRSSERKRSRRDDSPNAKRSIGLKSPERRSSRDRKSSPKQRQDSPVRRRRSPSSIRKESQRVRKHSPEQKRNGRHDSRSVSPVRRRRSPSPDNRQLGSRKQYSPLRRRQSSPMVASPRRRRSPSPERQRKRRSPSDSPPTRRLSTSPIRRRRSPSPNKLPVRRRRHDSGSPDRDGSESPKMWRKKSHK”, the “soluble on expression in E. coli” value was “not soluble”. In the case of “MGSDKIHHHHHHMQSFDIESLIGVNKVPSLVEMVAASRASSFSPPFEQQHHDPMGVVAAAAAAAAAGRHHPYDNRDDGQMRRYRTAFSREQIGRLEREFAKENYVSRKTRGELAAELNLPEGTIKVWFQNRRMKDKRQRVGGLAWPFPPQMAAYMLNPFAYEMWMKTAAASQFGATGPGNGAYGNNGSSTSPSAAGSLPFLPPLGFPSFLSQNSTKSPSSPHSDDSSKSKNTSSDDDESKPVNFSNSPSSSSPSPYSTD”, the “soluble on expression in E. coli” value is reported as “not soluble”. In the case of “MHHHHHHSSGRENLYFQGGPAIGIDLGTTYSCVGVWRNDTVDIVPNDQGNRTTPSYVAFTETERLIGDAAKNQVARNPENTVFDAKRLIGRKFDDQAVQSDMTHWPFKVVRGPKDKPIISVNYLGEKKEFHAEEISAMVLQKMKEISEAYLGRQIKNAVVTVPAYFNDSQRQATKDAGAIAGLNVMRIINEPTAAAIAYGLDKKGTGERNVLIFDLGGGTFDVSLLTIEDGIFEVKATAGDTHLGGEDFDNRLVEFCVQDFKRKNRGMDLTTNARALRRLRTQCERAKRTLSSSTQATIELDSLYEGIDYSVAISRARFEELCADYFRATLAPVEKVLKDAGMDKRSVHDVVLVGGSTRIPKVQALIQEFFNGKEPCKAINPDEAVAYGAAVQAAILNGE”, the “soluble on expression in E. coli” value is reported as “soluble”. With “MKLVRFLMKLSHETVNIELKNGTQVSGTIMGVDVAMNTHLRAVSMTVKNKEPVKLDTLSIRGNNIRYIILPDPLALDTLLIDDEPRKKARAARAGASRGRGRGGMRGGRGGRGRGRGGPRGGGPRR” the “soluble on expression in E. coli” value was “not soluble”.

Reference: the DeepSol protein solubility set
